According to PubChem BioAssay (NCATS):
The shares of active, inactive and inconclusive entries below differ from those in the screen. Potencies of inconclusive entries are doubtful fits and often do not repeat. Active and inactive are the calls of the source. The call rests on the fitted dose curve.

By UniProt entry, the sequences of proteins in these tests, tags left out.
UniProt P09958, whole entry, looked up: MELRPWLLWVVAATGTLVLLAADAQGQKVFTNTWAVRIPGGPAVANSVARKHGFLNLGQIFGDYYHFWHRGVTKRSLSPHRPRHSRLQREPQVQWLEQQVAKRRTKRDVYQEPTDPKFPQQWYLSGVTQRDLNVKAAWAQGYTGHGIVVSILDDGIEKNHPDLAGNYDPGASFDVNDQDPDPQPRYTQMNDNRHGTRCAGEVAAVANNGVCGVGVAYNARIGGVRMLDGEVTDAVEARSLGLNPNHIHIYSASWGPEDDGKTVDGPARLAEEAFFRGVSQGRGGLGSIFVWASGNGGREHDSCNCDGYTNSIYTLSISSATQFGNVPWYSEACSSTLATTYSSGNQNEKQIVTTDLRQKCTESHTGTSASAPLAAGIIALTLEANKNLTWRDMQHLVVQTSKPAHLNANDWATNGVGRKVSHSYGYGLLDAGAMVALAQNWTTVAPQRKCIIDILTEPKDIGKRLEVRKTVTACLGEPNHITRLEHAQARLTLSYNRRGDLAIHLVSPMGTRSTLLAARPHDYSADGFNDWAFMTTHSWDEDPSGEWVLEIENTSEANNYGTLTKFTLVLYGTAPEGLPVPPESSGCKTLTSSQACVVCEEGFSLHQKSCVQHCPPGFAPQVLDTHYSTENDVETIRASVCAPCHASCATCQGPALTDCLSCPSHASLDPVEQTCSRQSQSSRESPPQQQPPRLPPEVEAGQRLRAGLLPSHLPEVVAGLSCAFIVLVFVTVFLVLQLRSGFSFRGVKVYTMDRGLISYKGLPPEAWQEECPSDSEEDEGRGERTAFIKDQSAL

Target: Furin (Homo sapiens) (UniProt P09958)
Test: Selectivity profile for inhibitors of NSP2Pro chikungunya virus (CHIKV): Human furin counterscreen (AID 1964102)
Conditions: Recombinant human furin enzymatic counterscreen, fluorogenic substrate; series mostly up to 50.6 µM
Description: PI: Natalia J. Martinez Ph.D.
National Center for Advancing Translational Sciences (NCATS),
National Institute of Health (NIH), Rockville, Maryland
Chikungunya virus (CHIKV) is a mosquito-borne RNA virus that has emerged as one of the most important global arboviral threats in the last decade. Although the first CHIKV vaccine has recently been FDA approved for use in healthy adults at increased risk, to date, there are no available antiviral drugs for CHIKV infection. CHIKV nsP2 protease plays a crucial role in the processing of the viral polypeptide precursor to release enzymes required for viral replication, thus making it a promising drug target for antiviral discovery. Here, we established a high-throughput pipeline to identify small molecule inhibitors of nsP2 proteolytic activity. The pipeline is composed of a suite of 1,536-well in vitro assays to support quantitative high-throughput (qHTS) screening campaigns. Specifically, we developed a fluorescence resonance energy transfer (FRET)-based assay using a fluorogenic peptide substrate encompassing an endogenous cleavage site and purified recombinant protease domain (nsP2pro). Using this assay, we interrogated ~37,000 small molecules, including those in drug repurposing libraries as well as chemically diverse and medicinal chemistry-friendly compounds. Hits were selected for follow-up validation against full-length nsP2 and an additional peptide. FRET-based 1,536-well assays for papain, hepatitis C virus NS3-4A, and human furin proteases were implemented to characterize compound selectivity. […] Novel compounds were identified to be potential nsP2 inhibitors and molecular docking analyses were performed to explain the binding mode of selected hits. In vitro antiviral activity was evaluated for a subset of compounds using a high-throughput CHIKV infection assay. To our knowledge, the pipeline presented here is unprecedented for CHIKV antiviral discovery research.
PROTOCOL TABLE (as described by Inglese J, Shamu CE and Guy RK. 2007)
SEQUENCE No. (e.g., 1, 2, 3, etc.); […] (e.g., Cells, Incubation, Reagent, etc.); VALUE; DESCRIPTION.
1; Enzyme; 2 uL; 1,536-well solid-bottom, black plate (Greiner Bio One).
2; Compounds; 20 nL; Echo 655 acoustic dispenser (Beckman Coulter).
3; Incubation; 15 min; room temperature in the dark.
4: Reagent; 2 uL; pERTKR-AMC.
5; Detection; Fluorescence; time 0, Viewlux microplate reader (PerkinElmer) 355 nm excitation, 460 nm emission
6; Incubation; 15 min; room temperature
7; Detection; Fluorescence; time 15; ViewLux microplate reader (PerkinElmer), 355 nm excitation, 460 nm emission.
NOTES (numbers refer to sequence numbers above).
1. Two micro-liter of furin enzyme solution (40 nM final concentration) in assay buffer (20 mM Tris-HCl pH 8.0, 150 mM NaCl, with 0.01% Tween 20) were dispensed into a 1,536-well solid-bottom black plate (Greiner Bio One) using the Kalypsys Pintool Station.
2. Twenty nano-liter of compounds, positive control Aprotinin (50 uM final concentration), or neutral control DMSO were transferred to the assay plates. Compounds in counterscreen assays were tested at 11 concentrations, 1:3 dilution points from 25 uM to 0.42 nM.
3. The assay plates were incubated in the dark for 15 min.
4. After incubation, 2 uL of 0.625 uM pERTKR-AMC substrate in assay buffer for the Furin assay was added using the Kalypsys Pintool Station.
5-7. Plates were immediately read at time 0 then covered with stainless steel gasket lids and incubated for 15 min at room temperature in the dark. Fluorescence intensity in the assay plates were again read after incubation using the ViewLux imager equipped with AMC fluorescence optics. The change in fluorescence intensity over the 15-min reaction period was normalized against DMSO and inhibitor controls as described below.
Inglese J, Shamu CE and Guy RK, Reporting data from high throughput screening of small molecule libraries, Nature Chemical Biology, 2007, 3(8): 438-441. doi.org/10.1038/nchembio0807-438.
Potency means the concentration at half of the fitted maximal effect.

SMILES	Potency
Cc1cccc(C(=O)Nc2ccc(N3CC=C(c4ccccc4C)CC3)c(C(=O)O)c2)c1	inconclusive: 20.6 µM [inhibitor, partial curve]
CC(C)n1nc(C#Cc2ccccc2)c2c(N)ncnc21	inconclusive: 29.1 µM [inhibitor, single point]
COc1ccc(C(=O)Nc2ccc(N(C)Cc3ccccc3)c(C(=O)O)c2)cc1	inconclusive: 20.6 µM [inhibitor, partial curve, poor fit]
Cn1nnnc1Sc1ncnc2n[nH]c(-c3cccc(S(C)(=O)=O)c3)c12	inconclusive: 282 µM [inhibitor, single point]
CCCCNC(=O)CN1CCN(c2ccc(NC(=O)c3ccc(OC)cc3)cc2C(=O)O)CC1	inconclusive: 23.1 µM [inhibitor, single point]
C1=C(c2cnc[nH]2)c2ccsc2CC1	inconclusive: 36.6 µM [inhibitor, single point]
Oc1cc(CNC(=S)/C=C/c2cc(O)c(O)c(Br)c2)cc(O)c1O	inconclusive: 20.6 µM [inhibitor, partial curve]
[Hg+][c]1ccccc1	active: 1.03 µM
CC(C)Nc1cccnc1N1CCN(C(=O)c2cc3cc(NS(C)(=O)=O)ccc3[nH]2)CC1	inactive
O=C(Nc1ccc(N2CCC(N3CCCCC3)CC2)c(C(=O)O)c1)c1ccccc1	inconclusive: 23.1 µM [inhibitor, partial curve]
CC1=C(O)C(=O)C=C2C1=CC=C1[C@@]2(C)CC[C@@]2(C)[C@@H]3C[C@](C)(C(=O)O)CC[C@]3(C)CC[C@]12C	inconclusive: 20.6 µM [inhibitor, partial curve]
CCCNC(=O)N[C@@H]1CCC[C@@H](C(=O)N(CC)CC)CC(=O)N(C)C1	inconclusive: 23.7 µM [inhibitor, partial curve]
O=C(Nc1ccc(N2CCOCC2)c(C(=O)O)c1)c1ccc(Br)cc1	inconclusive: 20.6 µM [inhibitor, partial curve]
CCCNC(=O)N[C@@H]1CCC[C@@H](C(=O)NCCOC)CC(=O)N(C)C1	inconclusive: 29.8 µM [inhibitor, partial curve, poor fit]
O=C1Nc2ccccc2/C1=C/c1cc(O)ccc1O	inconclusive: 18.3 µM [inhibitor, partial curve]
CCC(C)C(=O)OC1C(C)C2(O)C(C=C(CO)CC3(O)C(=O)C(C)=CC32)C2C(C)(C)C12OC(=O)C(C)C (stereo not given)	inactive
Cc1ccc(N[S+](=O)([O-])c2cc3c(cc2N[C@@H](C)CO)NC(=O)CC3)cc1N[C@@H](C)CO	inconclusive: 20.6 µM [inhibitor, partial curve]
O=C(Nc1cnc(N2CCC(N3CCCCC3)CC2)c(C(=O)O)c1)c1ccc(Br)cc1	inconclusive: 23.1 µM [inhibitor, partial curve]
O=C(O)c1cc(-c2ccc(/C=C3\SC(=S)N(Cc4ccccc4)C3=O)o2)ccc1Cl	inactive
C=C1C(=O)O[C@@H]2C(OC(=O)/C(C)=C\C)/C(C)=C\C(=O)/C=C(\C)C[C@H](O)[C@@H]12 (stereo not given in full)	inactive

3 entries out of the list, ordered by molar mass, rising:
SMILES	Potency
Cn1nnnc1Sc1ncnc2n[nH]c(-c3cccc(S(C)(=O)=O)c3)c12	inconclusive: 282 µM [inhibitor, single point]
O=C(Nc1ccc(N2CCOCC2)c(C(=O)O)c1)c1ccc(Br)cc1	inconclusive: 20.6 µM [inhibitor, partial curve]
Oc1cc(CNC(=S)/C=C/c2cc(O)c(O)c(Br)c2)cc(O)c1O	inconclusive: 20.6 µM [inhibitor, partial curve]

Continued:

SMILES	Potency
CC1CCN(c2ccc(NC(=O)c3cccc(Cl)c3)cc2C(=O)O)CC1	inconclusive: 20.6 µM [inhibitor, partial curve]
CCCSS/C(CCO)=C(\C)N(C=O)Cc1cnc(C)nc1N	inactive
Cc1cccc(C(=O)Nc2ccc(N3CCC(N4CCCCC4)CC3)c(C(=O)O)c2)c1	inconclusive: 20.6 µM [inhibitor, single point]
CC(C)NC(=O)OC[C@H]1C[C@@H]2CCN1C[C@@H]2c1cc(C2CCCC2)nc(-c2ccncc2)n1	inconclusive: 20.6 µM [inhibitor, partial curve]
COc1ccc([N+](=O)[O-])c(S(=O)(=O)c2ccccc2)n1	inconclusive: 18.3 µM [inhibitor, partial curve]
NS(=O)(=O)C#Cc1ccccc1	inactive
O=C(Nc1ccc(N2CCC(c3ccccc3)C2)c(C(=O)O)c1)c1ccc(Cl)cc1 (stereo not given)	inconclusive: 20.6 µM [inhibitor, partial curve, poor fit]
O=[N+]([O-])c1ccc(S(=O)(=O)c2ccc(Cl)cc2)nc1	active: 16.3 µM
CCc1ccccc1NC(=O)c1cnn(-c2ccc(F)cc2)c1C1CCNCC1	inactive
CC(CO[C@@H]1O[C@H](COC(=O)/C=C/c2ccc(O)c(O)c2)[C@@H](O)[C@H](O)[C@H]1O)C1(O)COC(=O)C1 (stereo not given in full)	inactive
Cc1c(C(=O)OCC2CCCCO2)[nH]c2c1C(=O)CC(c1ccco1)C2 (stereo not given)	inconclusive: 8.19 µM [inhibitor, partial curve, poor fit]
O=C(NC1CCCCC1)OC[C@H]1C[C@@H]2CCN1C[C@@H]2c1cc(C2CCCC2)nc(-c2ccncc2)n1	inconclusive: 18.3 µM [inhibitor, partial curve]
O=C(NC1CCCCC1)O[C@@H]1CO[C@H]2[C@@H]1OC[C@@H]2n1nnnc1SCc1ccco1	inconclusive: 14.6 µM [inhibitor, partial curve]
CCCCN(CCCC)C(=S)[S-].CCCCN(CCCC)C(=S)[S-].[Zn+2]	active: 7.3 µM
Cc1ccc(S(=O)(=O)c2ccc([N+](=O)[O-])cn2)cc1	active: 11.6 µM
O=C(O[C@@H]1Cc2c(O)cc(O)cc2O[C@@H]1c1cc(O)c(O)c(O)c1)c1cc(O)c(O)c(O)c1	inconclusive: 25.9 µM [inhibitor, partial curve, poor fit]
Clc1ccc(N2C[C@H]3CC[C@@H](C2)N3)nn1	inconclusive: 20.6 µM [inhibitor, partial curve]
COC(=O)c1c(NC(=O)CCCOc2cccc(C)c2)sc2c1C(C(=O)OC)CC2 (stereo not given)	inactive
Oc1ccc(C(O)CNCCCCCCNCC(O)c2ccc(O)c(O)c2)cc1O (stereo not given)	active: 25.9 µM
O=C(Nc1cnc(N2CCN(c3ccccc3)CC2)c(C(=O)O)c1)c1cccs1	inconclusive: 20.6 µM [inhibitor, partial curve]
